No constants are given. Whether binding was seen depends on the method and setting. Some entries that bind do so weakly or less than the wild type.
Target: T1, NS-SPIK (Normal Secreted serine protease inhibitor Kazal), from the medium of pancreatic cells (human) (UniProt P00995)
T1 sequence: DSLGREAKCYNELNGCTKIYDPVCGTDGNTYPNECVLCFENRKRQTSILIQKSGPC
Experiment: method not described

B1: monoclonal antibody IM-S14 (antibody, V domains shown)
VH: EVKLVESGGGLVKPGGSLKVSCAASGFTFSSNAMSWVRQTPEKRLEWVASISSGGRIYYPDSVKGRFTISRDNARNILHLQMSSLRSEDTAMYYCARWVIYYDYDGAWFPYWGQGTLVTVSA
VL: NIVLTQSPASLAVSLGQRATISCRTSESVDSYGDSFMHWYQQKPGQPPKLLIYLASNLESGVPARFSGSGSRTDFTLTIDPVEADDAATYYCQQNNEDPTFGGGTKLEIK
binding: binds
